In patent publication US12729225B2, “Non-canonical SWI/SNF complex and uses thereof” (Dana-Farber Cancer Institute, Inc., priority 2018, dated 2026):

Test system: mSWI/SNF complexes
Test: mSWI/SNF complex purification with HA-tagged baits and mass spectrometry (peptide counts)
Set-up: species or system human
Settings: 293_HA-BRD7 bait purification, mass spectrometry; for Total: total peptide count per identified protein; for Unique: unique peptide count per identified protein

| Molecule | Total | Unique |
| --- | --- | --- |
| ECHS1 (protein, UniProt P30084 28-290, looked up) Enoyl-CoA hydratase, …: ASGANFEYIIAEKRGKNNTVGLIQLNRPKALNALCDGLIDELNQALKTFEEDPAVGAIVLTGGDKAFAAGADIKEMQNLSFQDCYSSKFLKHWDHLTQVKKPVIAAVNGYAFGGGCELAMMCDIIYAGEKAQFAQPEILIGTIPGAGGTQRLTRAVGKSLAMEMVLTGDRISAQDAKQAGLVSKICPVETLVEEAIQCAEKIASNSKIVVAMAKESVNAAFEMTLTEGSKLEKKLFYSTFATDDRKEGMTAFVEKRKANFKDQ | 1 | 1 |
| ERLIN1 (protein, UniProt O75477 1-348, looked up) Erlin-1: MNMTQARVLVAAVVGLVAVLLYASIHKIEEGHLAVYYRGGALLTSPSGPGYHIMLPFITTFRSVQTTLQTDEVKNVPCGTSGGVMIYIDRIEVVNMLAPYAVFDIVRNYTADYDKTLIFNKIHHELNQFCSAHTLQEVYIELFDQIDENLKQALQKDLNLMAPGLTIQAVRVTKPKIPEAIRRNFELMEAEKTKLLIAAQKQKVVEKEAETERKKAVIEAEKIAQVAKIRFQQKVMEKETEKRISEIEDAAFLAREKAKADAEYYAAHKYATSNKHKLTPEYLELKKYQAIASNSKIYFGSNIPNMFVDSSCALKYSDIRTGRESSLPSKEALEPSGENVIQNKESTG | 1 | 1 |
| PGRMC2 (protein, UniProt O15173 1-223, looked up) Membrane-associated …: MAAGDGDVKLGTLGSGSESSNDGGSESPGDAGAAAEGGGWAAAALALLTGGGEMLLNVALVALVLLGAYRLWVRWGRRGLGAGAGAGEESPATSLPRMKKRDFSLEQLRQYDGSRNPRILLAVNGKVFDVTKGSKFYGPAGPYGIFAGRDASRGLATFCLDKDALRDEYDDLSDLNAVQMESVREWEMQFKEKYDYVGRLLKPGEEPSEYTDEEDTKDHNKQD | 1 | 1 |
| SREK1 (protein, UniProt Q8WXA9 1-508, looked up) Splicing regulatory …: MTSLMPGAGLLPIPTPNPLTTLGVSLSSLGAIPAAALDPNIATLGEIPQPPLMGNVDPSKIDEIRRTVYVGNLNSQTTTADQLLEFFKQVGEVKFVRMAGDETQPTRFAFVEFADQNSVPRALAFNGVMFGDRPLKINHSNNAIVKPPEMTPQAAAKELEEVMKRVREAQSFISAAIEPESGKSNERKGGRSRSHTRSKSRSSSKSHSRRKRSQSKHRSRSHNRSRSRQKDRRRSKSPHKKRSKSRERRKSRSRSHSRDKRKDTREKIKEKERVKEKDREKEREREKEREKEKERGKNKDRDKEREKDREKDKEKDREREREKEHEKDRDKEKEKEQDKEKEREKDRSKEIDEKRKKDKKSRTPPRSYNASRRSRSSSRERRRRRSRSSSRSPRTSKTIKRKSSRSPSPRSRNKKDKKREKERDHISERRERERSTSMRKSSNDRDGKEKLEKNSTSLKEKEHNKEPDSSVSKEVDDKDAPRTEENKIQHNGNCQLNEENLSTKTEAV | 1 | 1 |
| TRIM28 (protein, UniProt Q13263 2-835, looked up) Transcription intermediary …: AASAAAASAAAASAASGSPGPGEGSAGGEKRSTAPSAAASASASAAASSPAGGGAEALELLEHCGVCRERLRPEREPRLLPCLHSACSACLGPAAPAAANSSGDGGAAGDGTVVDCPVCKQQCFSKDIVENYFMRDSGSKAATDAQDANQCCTSCEDNAPATSYCVECSEPLCETCVEAHQRVKYTKDHTVRSTGPAKSRDGERTVYCNVHKHEPLVLFCESCDTLTCRDCQLNAHKDHQYQFLEDAVRNQRKLLASLVKRLGDKHATLQKSTKEVRSSIRQVSDVQKRVQVDVKMAILQIMKELNKRGRVLVNDAQKVTEGQQERLERQHWTMTKIQKHQEHILRFASWALESDNNTALLLSKKLIYFQLHRALKMIVDPVEPHGEMKFQWDLNAWTKSAEAFGKIVAERPGTNSTGPAPMAPPRAPGPLSKQGSGSSQPMEVQEGYGFGSGDDPYSSAEPHVSGVKRSRSGEGEVSGLMRKVPRVSLERLDLDLTADSQPPVFKVFPGSTTEDYNLIVIERGAAAAATGQPGTAPAGTPGAPPLAGMAIVKEEETEAAIGAPPTATEGPETKPVLMALAEGPGAEGPRLASPSGSTSSGLEVVAPEGTSAPGGGPGTLDDSATICRVCQKPGDLVMCNQCEFCFHLDCHLPALQDVPGEEWSCSLCHVLPDLKEEDGSLSLDGADSTGVVAKLSPANQRKCERVLLALFCHEPCRPLHQLATDSTFSLDQPGGTLDLTLIRARLQEKLSPPYSSPQEFAQDVGRMFKQFNKLTEDKADVQSIIGLQRFFETRMNEAFGDTKFSAVLVEPPPMSLPGAGLSSQELSGGPGDGP | 1 | 1 |
| RBM27 (protein, UniProt Q9P2N5 1-1060, looked up) RNA-binding protein 27: MLIEDVDALKSWLAKLLEPICDADPSALANYVVALVKKDKPEKELKAFCADQLDVFLQKETSGFVDKLFESLYTKNYLPLLEPVKPEPKPLVQEKEEIKEEVFQEPAEEERDGRKKKYPSPQKTRSESSERRTREKKREDGKWRDYDRYYERNELYREKYDWRRGRSKSRSKSRGLSRSRSRSRGRSKDRDPNRNVEHRERSKFKSERNDLESSYVPVSAPPPNSSEQYSSGAQSIPSTVTVIAPAHHSENTTESWSNYYNNHSSSNSFGRNLPPKRRCRDYDERGFCVLGDLCQFDHGNDPLVVDEVALPSMIPFPPPPPGLPPPPPPGMLMPPMPGPGPGPGPGPGPGPGPGPGPGHSMRLPVPQGHGQPPPSVVLPIPRPPITQSSLINSRDQPGTSAVPNLASVGTRLPPPLPQNLLYTVSERQPMYSREHGAAASERLQLGTPPPLLAARLVPPRNLMGSSIGYHTSVSSPTPLVPDTYEPDGYNPEAPSITSSGRSQYRQFFSRTQTQRPNLIGLTSGDMDVNPRAANIVIQTEPPVPVSINSNITRVVLEPDSRKRAMSGLEGPLTKKPWLGKQGNNNQNKPGFLRKNQYTNTKLEVKKIPQELNNITKLNEHFSKFGTIVNIQVAFKGDPEAALIQYLTNEEARKAISSTEAVLNNRFIRVLWHRENNEQPTLQSSAQLLLQQQQTLSHLSQQHHHLPQHLHQQQVLVAQSAPSTVHGGIQKMMSKPQTSGAYVLNKVPVKHRLGHAGGNQSDASHLLNQSGGAGEDCQIFSTPGHPKMIYSSSNLKTPSKLCSGSKSHDVQEVLKKKQEAMKLQQDMRKKRQEVLEKQIECQKMLISKLEKNKNMKPEERANIMKTLKELGEKISQLKDELKTSSAVSTPSKVKTKTEAQKELLDTELDLHKRLSSGEDTTELRKKLSQLQVEAARLGILPVGRGKTMSSQGRGRGRGRGGRGRGSLNHMVVDHRPKALTVGGFIEEEKEDLLQHFSTANQGPKFKDRRLQISWHKPKVPSISTETEEEEVKEEETETSDLFLPDDDDEDEDEYESRSWRR | 1 | 1 |
| HNRNPH3 (protein, UniProt P31942 1-346, looked up) Heterogeneous nuclear …: MDWVMKHNGPNDASDGTVRLRGLPFGCSKEEIVQFFQGLEIVPNGITLTMDYQGRSTGEAFVQFASKEIAENALGKHKERIGHRYIEIFRSSRSEIKGFYDPPRRLLGQRPGPYDRPIGGRGGYYGAGRGSMYDRMRRGGDGYDGGYGGFDDYGGYNNYGYGNDGFDDRMRDGRGMGGHGYGGAGDASSGFHGGHFVHMRGLPFRATENDIANFFSPLNPIRVHIDIGADGRATGEADVEFVTHEDAVAAMSKDKNNMQHRYIELFLNSTPGGGSGMGGSGMGGYGRDGMDNQGGYGSVGRMGMGNNYSGGYGTPDGLGGYGRGGGGSGGYYGQGGMSGGGWRGMY | 1 | 1 |
| HNRNPCL3 (protein, UniProt B7ZW38 1-293, looked up) Heterogeneous nuclear …: MASNVTNKMDPHSMNSRVFIGNLNTLVVKKSDVEAIFSKYGKIAGCSVHKGFAFVQYDKEKNARAAVAGEDGRMIASQVVDINLAAEPKVNRGNAGVKRSAAEMYGSSFDLDYNLQRDYYGGMYSFPARVPPPPPIALAVVPSKRQRISGNTSRRGKSGFNSKSGKRGSSKSGKLKGDDLQAIKQELTQIKQKVDSLLENLEKIEKEHCKQGVEVKNAKSEEEQTSSSSKKDKTHVKMESEGGADDSVEEGDLLCDDDNEDQGDNQLELIKDDEKGAEEGEDDRDRANGQDDS | 1 | 1 |
| DNAJC4 (protein, UniProt Q9NNZ3 1-241, looked up) DnaJ homolog subfamily C …: MPPLLPLRLCRLWPRNPPSRLLGAAAGQRSRPSTYYELLGVHPGASTEEVKRAFFSKSKELHPDRDPGNPSLHSRFVELSEAYRVLSREQSRRSYDDQLRSGSPPKSPRTTVHDKSAHQTHSSWTPPNAQYWSQFHSVRPQGPQLRQQQHKQNKQVLGYCLLLMLAGMGLHYIAFRKVKQMHLNFMDEKDRIITAFYNEARARARANRGILQQERQRLGQRQPPPSEPTQGPEIVPRGAGP | 1 | 1 |
| HK1 (protein, UniProt P19367 1-917, looked up) Hexokinase-1: MIAAQLLAYYFTELKDDQVKKIDKYLYAMRLSDETLIDIMTRFRKEMKNGLSRDFNPTATVKMLPTFVRSIPDGSEKGDFIALDLGGSSFRILRVQVNHEKNQNVHMESEVYDTPENIVHGSGSQLFDHVAECLGDFMEKRKIKDKKLPVGFTFSFPCQQSKIDEAILITWTKRFKASGVEGADVVKLLNKAIKKRGDYDANIVAVVNDTVGTMMTCGYDDQHCEVGLIIGTGTNACYMEELRHIDLVEGDEGRMCINTEWGAFGDDGSLEDIRTEFDREIDRGSLNPGKQLFEKMVSGMYLGELVRLILVKMAKEGLLFEGRITPELLTRGKFNTSDVSAIEKNKEGLHNAKEILTRLGVEPSDDDCVSVQHVCTIVSFRSANLVAATLGAILNRLRDNKGTPRLRTTVGVDGSLYKTHPQYSRRFHKTLRRLVPDSDVRFLLSESGSGKGAAMVTAVAYRLAEQHRQIEETLAHFHLTKDMLLEVKKRMRAEMELGLRKQTHNNAVVKMLPSFVRRTPDGTENGDFLALDLGGTNFRVLLVKIRSGKKRTVEMHNKIYAIPIEIMQGTGEELFDHIVSCISDFLDYMGIKGPRMPLGFTFSFPCQQTSLDAGILITWTKGFKATDCVGHDVVTLLRDAIKRREEFDLDVVAVVNDTVGTMMTCAYEEPTCEVGLIVGTGSNACYMEEMKNVEMVEGDQGQMCINMEWGAFGDNGCLDDIRTHYDRLVDEYSLNAGKQRYEKMISGMYLGEIVRNILIDFTKKGFLFRGQISETLKTRGIFETKFLSQIESDRLALLQVRAILQQLGLNSTCDDSILVKTVCGVVSRRAAQLCGAGMAAVVDKIRENRGLDRLNVTVGVDGTLYKLHPHFSRIMHQTVKELSPKCNVSFLLSEDGSGKGAALITAVGVRLRTEASS | 1 | 1 |
| HMGB1P1 (protein, UniProt B2RPK0 1-211, looked up) High mobility group protein …: MGKGDPKKPRGKMSSYAFFVQTCREEHKKKHSDASVNFSEFSNKCSERWKTMSAKEKGKFEDMAKADKTHYERQMKTYIPPKGETKKKFKDPNAPKRPPSAFFLFCSEYHPKIKGEHPGLSIGDVAKKLGEMWNNTAADDKQPGEKKAAKLKEKYEKDIAAYQAKGKPEAAKKGVVKAEKSKKKKEEEEDEEDEEDEEEEDEEDEEDDDDE | 1 | 1 |
| RPF2 (protein, UniProt Q9H7B2 1-306, looked up) Ribosome production factor 2 …: MDTLDRVVKPKTKRAKRFLEKREPKLNENIKNAMLIKGGNANATVTKVLKDVYALKKPYGVLYKKKNITRPFEDQTSLEFFSKKSDCSLFMFGSHNKKRPNNLVIGRMYDYHVLDMIELGIENFVSLKDIKNSKCPEGTKPMLIFAGDDFDVTEDYRRLKSLLIDFFRGPTVSNIRLAGLEYVLHFTALNGKIYFRSYKLLLKKSGCRTPRIELEEMGPSLDLVLRRTHLASDDLYKLSMKMPKALKPKKKKNISHDTFGTTYGRIHMQKQDLSKLQTRKMKGLKKRPAERITEDHEKKSKRIKKN | 1 | 1 |
